Here are results for 6 molecules from article PMC7560607, “Synapse type-specific proteomic dissection identifies IgSF8 as a hippocampal CA3 microcircuit organizer” (Nature Communications, 2020).

Sequences of proteins named here, by UniProt entry; tags and fusion partners are left off. Residues count along the entry.
UniProt P11627, residues 20-1123: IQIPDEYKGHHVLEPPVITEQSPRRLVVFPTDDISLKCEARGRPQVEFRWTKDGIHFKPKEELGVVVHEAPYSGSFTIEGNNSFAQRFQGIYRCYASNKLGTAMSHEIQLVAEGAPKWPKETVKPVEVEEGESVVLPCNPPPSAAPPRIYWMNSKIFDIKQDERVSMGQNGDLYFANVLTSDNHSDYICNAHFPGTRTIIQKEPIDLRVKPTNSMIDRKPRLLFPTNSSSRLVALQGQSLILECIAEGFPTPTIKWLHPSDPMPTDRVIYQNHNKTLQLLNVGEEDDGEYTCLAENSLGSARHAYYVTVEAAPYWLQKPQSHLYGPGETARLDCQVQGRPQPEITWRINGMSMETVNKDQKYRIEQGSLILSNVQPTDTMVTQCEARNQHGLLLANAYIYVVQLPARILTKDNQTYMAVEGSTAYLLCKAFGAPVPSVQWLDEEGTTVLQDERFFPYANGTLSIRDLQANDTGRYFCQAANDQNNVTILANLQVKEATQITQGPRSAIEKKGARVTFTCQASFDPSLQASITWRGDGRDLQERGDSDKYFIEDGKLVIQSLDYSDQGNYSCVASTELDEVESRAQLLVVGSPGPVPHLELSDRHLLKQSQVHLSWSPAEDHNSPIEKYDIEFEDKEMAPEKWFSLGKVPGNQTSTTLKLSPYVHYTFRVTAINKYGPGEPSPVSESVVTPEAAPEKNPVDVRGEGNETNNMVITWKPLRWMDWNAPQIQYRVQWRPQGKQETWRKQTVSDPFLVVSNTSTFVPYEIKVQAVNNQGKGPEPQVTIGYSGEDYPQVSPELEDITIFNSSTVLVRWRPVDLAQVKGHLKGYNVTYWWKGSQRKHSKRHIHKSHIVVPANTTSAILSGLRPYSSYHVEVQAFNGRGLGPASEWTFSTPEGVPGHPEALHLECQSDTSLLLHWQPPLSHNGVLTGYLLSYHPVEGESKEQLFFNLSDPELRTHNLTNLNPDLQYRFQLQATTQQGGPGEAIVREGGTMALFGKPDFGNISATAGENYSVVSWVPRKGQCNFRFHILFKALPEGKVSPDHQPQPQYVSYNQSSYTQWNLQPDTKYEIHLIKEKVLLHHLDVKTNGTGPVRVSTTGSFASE
UniProt Q810U4, residues 30-1119: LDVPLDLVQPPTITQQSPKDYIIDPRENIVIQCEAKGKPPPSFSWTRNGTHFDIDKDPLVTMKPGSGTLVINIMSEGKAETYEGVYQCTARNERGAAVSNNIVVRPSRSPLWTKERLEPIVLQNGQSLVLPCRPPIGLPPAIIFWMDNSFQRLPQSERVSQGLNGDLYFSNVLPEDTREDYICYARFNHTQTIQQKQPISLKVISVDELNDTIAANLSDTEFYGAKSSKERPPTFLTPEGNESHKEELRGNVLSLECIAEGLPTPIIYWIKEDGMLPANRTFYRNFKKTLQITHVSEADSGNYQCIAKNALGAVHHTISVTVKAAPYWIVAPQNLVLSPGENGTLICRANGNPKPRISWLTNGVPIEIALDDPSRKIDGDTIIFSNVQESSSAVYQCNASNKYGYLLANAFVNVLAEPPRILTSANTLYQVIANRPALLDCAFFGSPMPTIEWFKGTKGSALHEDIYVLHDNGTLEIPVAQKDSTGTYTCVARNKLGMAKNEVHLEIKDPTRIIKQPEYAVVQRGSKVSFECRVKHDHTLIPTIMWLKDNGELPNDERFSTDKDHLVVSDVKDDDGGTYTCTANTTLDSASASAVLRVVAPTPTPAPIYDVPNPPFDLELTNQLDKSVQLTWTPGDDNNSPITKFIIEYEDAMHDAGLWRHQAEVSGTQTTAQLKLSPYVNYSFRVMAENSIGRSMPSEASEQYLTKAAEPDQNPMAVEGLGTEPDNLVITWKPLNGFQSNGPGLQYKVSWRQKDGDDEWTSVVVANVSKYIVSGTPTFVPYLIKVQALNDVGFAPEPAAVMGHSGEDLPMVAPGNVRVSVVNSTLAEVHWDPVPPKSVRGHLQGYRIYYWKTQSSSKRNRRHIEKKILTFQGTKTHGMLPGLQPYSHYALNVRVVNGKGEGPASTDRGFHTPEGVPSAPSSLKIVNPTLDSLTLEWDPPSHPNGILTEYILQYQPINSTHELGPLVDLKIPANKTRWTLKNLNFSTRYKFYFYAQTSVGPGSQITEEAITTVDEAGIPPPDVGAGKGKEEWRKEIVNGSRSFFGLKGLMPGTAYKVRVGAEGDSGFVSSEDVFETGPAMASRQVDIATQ

These are yes or no findings as the source states them, for the method shown. For part of these data: In cells and extracts the contact can be indirect. Some entries that bind do so weakly or less than the wild type. For part of these data: Tags and fused reporters may be left off the sequences shown.

Test [1] addresses L1CAM ectodomain (Fc and AP fusions) (not stated (human or mouse ectodomain sequences)) (UniProt P11627). Kind of test: ELISA; 384-well pairwise screen; ecto-AP fusion captured on plate by anti-AP antibody, ecto-Fc fusion detected with anti-human IgG1-HRP; conditioned media, 4 h RT; both orientations; positive: OD650 > 5-fold over background, detected at least twice in three experiments.

The target of test [2] is T1, Neurofascin ectodomain (Fc and AP fusions) (not stated (human or mouse ectodomain sequences)) (UniProt Q810U3).
T1 sequence: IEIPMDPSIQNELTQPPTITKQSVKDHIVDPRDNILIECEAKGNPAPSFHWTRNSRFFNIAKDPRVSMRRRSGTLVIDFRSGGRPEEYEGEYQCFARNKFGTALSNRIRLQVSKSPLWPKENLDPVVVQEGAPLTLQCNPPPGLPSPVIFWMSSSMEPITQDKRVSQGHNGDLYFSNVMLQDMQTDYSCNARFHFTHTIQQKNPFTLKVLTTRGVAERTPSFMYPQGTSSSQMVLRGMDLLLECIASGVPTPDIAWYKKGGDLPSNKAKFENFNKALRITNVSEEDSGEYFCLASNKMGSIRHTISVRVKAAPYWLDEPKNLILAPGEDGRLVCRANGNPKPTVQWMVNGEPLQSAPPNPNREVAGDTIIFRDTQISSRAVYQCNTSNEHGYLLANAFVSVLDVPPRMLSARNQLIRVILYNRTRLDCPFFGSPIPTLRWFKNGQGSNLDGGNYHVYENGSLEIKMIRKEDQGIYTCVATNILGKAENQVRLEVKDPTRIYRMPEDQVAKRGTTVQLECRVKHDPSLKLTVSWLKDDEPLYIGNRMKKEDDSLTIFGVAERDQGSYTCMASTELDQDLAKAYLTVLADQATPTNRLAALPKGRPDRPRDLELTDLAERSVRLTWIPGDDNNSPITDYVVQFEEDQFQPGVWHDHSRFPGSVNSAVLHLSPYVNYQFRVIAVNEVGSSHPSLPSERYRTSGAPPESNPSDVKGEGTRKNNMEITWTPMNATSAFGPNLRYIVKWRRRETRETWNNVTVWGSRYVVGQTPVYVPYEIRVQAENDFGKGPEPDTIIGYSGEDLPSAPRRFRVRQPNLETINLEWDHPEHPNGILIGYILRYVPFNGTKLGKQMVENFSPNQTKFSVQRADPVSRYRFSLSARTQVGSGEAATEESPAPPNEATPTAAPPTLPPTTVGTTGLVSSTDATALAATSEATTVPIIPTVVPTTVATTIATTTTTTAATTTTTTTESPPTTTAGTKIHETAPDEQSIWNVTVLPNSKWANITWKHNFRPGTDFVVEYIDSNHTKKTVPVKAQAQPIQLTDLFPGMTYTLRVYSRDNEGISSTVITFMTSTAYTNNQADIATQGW
The test is described as above.

Test [3] deals with ALCAM ectodomain (Fc and AP fusions) (not stated (human or mouse ectodomain sequences)) (UniProt Q61490). Described as above.
For test [4], the target named is T2, IgSF8-Fc (not stated (human or mouse ectodomain sequences)) (UniProt Q8R366).
T2 sequence: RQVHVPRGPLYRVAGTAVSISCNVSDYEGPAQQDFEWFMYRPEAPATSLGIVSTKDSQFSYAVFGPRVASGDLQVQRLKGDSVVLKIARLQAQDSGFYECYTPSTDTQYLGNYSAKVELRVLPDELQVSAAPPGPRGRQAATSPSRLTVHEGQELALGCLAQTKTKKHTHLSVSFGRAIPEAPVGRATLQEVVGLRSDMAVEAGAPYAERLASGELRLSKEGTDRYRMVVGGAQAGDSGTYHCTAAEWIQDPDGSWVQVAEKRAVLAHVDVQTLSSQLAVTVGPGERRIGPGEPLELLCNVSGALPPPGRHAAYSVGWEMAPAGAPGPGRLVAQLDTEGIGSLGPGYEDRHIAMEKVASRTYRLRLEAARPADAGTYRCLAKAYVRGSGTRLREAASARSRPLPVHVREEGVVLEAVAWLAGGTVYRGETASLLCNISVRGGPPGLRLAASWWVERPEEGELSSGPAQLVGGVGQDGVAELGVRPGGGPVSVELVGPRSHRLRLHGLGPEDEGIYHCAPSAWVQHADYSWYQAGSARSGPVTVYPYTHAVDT
Kind of test: pull-down; 3 ug purified Fc fusion added to 1 ml RIPA lysate of transfected HEK293T cells, overnight 4 °C, Protein-A agarose beads, western blot with anti-GFP; only the target purified.

Test [5] deals with T3, LGI1 (Fc and AP fusions) (not stated (human or mouse sequences)) (UniProt Q9JIA1).
T3 sequence: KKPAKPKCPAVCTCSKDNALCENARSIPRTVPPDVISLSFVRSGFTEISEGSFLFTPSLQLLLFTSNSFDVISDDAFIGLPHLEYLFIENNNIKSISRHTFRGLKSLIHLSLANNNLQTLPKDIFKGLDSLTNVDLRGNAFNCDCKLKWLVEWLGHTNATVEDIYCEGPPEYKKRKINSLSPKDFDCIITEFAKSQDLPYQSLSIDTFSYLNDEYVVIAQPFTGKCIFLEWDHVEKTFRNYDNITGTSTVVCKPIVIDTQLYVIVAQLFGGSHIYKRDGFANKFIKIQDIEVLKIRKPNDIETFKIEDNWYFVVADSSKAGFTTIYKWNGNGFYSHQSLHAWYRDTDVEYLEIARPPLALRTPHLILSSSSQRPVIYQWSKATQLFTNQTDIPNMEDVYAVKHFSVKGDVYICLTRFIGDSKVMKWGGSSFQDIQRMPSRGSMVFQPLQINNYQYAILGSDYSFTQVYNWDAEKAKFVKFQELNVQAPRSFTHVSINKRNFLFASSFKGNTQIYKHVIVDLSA
Description: ELISA; 384-well pairwise screen; ecto-AP fusion captured on plate by anti-AP antibody, ecto-Fc fusion detected with anti-human IgG1-HRP; conditioned media, 4 h RT; both orientations; positive: OD650 > 5-fold over background, detected at least twice in three experiments.

The target in test [6] is NCAM2 ectodomain (Fc and AP fusions) (not stated (human or mouse ectodomain sequences)) (UniProt O35136). Described as above.

In the case of “L1CAM ectodomain (Fc and AP fusions) (from UniProt P11627 20-1123) (domain or fragment)”, in test [1], the binding result is listed as “binds”.
For the molecule “NrCAM ectodomain (Fc and AP fusions) (from UniProt Q810U4 30-1119) (domain or fragment)”, in test [2], the binding result is “binds”.

B1: ALCAM ectodomain (Fc and AP fusions) (domain or fragment, UniProt Q61490 28-527)
chain: WYTVNSAYGDTIVMPCRLDVPQNLMFGKWKYEKPDGSPVFIAFRSSTKKSVQYDDVPEYKDRLSLSENYTLSIANAKISDEKRFVCMLVTEDNVFEAPTLVKVFKQPSKPEIVNKAPFLETDQLKKLGDCISRDSYPDGNITWYRNGKVLQPVEGEVAILFKKEIDPGTQLYTVTSSLEYKTTRSDIQMPFTCSVTYYGPSGQKTIYSEQEIFDIYYPTEQVTIQVLPPKNAIKEGDNITLQCLGNGNPPPEEFMFYLPGQPEGIRSSNTYTLTDVRRNATGDYKCSLIDKRNMAASTTITVHYLDLSLNPSGEVTKQIGDTLPVSCTISASRNATVVWMKDNIRLRSSPSFSSLHYQDAGNYVCETALQEVEGLKKRESLTLIVEGKPQIKMTKKTDPSGLSKTIICHVEGFPKPAIHWTITGSGSVINQTEESPYINGRYYSKIIISPEENVTLTCTAENQLERTVNSLNVSAISIPEHDEADDISDENREKVNDQAK
For B1, the binding result in test [3] is recorded as “binds”.

B2: Tenascin-R-EGFP (protein, UniProt Q8BYI9 32-1358)
chain: RLEVTTERAQRQTVEEEGGASSYNTSSKEQPMVFNHVYNINVPLESLCSSGLEASAEQDMSAEDDTLAEYIGQTSDHESQVTFTHKINLPKKACPCASSSQVLQELLSRIEMLEREVSLLRDQCNTNCCQESAATGQLDYVPHCSGHGNFSFESCGCICNEGWFGKNCSEPYCPLGCSSRGVCVDGQCICDSEYSGDDCSELRCPTDCSSRGLCVDGECVCEEPYTGEDCRELRCPGDCSGKGQCANGTCLCQEGYAGEDCSQRRCLNACSGRGHCQEGLCICEEGYQGPDCSAVAPPEDLRVAGISDRSIELEWDGPMAVTEYVISYQPTALGGLQLQQRVPGDWSGVTIMELEPGLTYNISVYAVISNILSLPITAKVATHLSTPQGLQFKTITETTVEVQWEPFSFSFDGWEISFIPKNNEGGVIAQLPSDVTSFNQTGLKPGEEYIVNVVALKEQARSPPTSASVSTVIDGPTQILVRDVSDTVAFVEWTPPRAKVDFILLKYGLVGGEGGKTTFRLQPPLSQYSVQALRPGSRYEVSISAVRGTNESEASSTQFTTEIDAPKNLRVGSRTATSLDLEWDNSEAEAQEYKVVYSTLAGEQYHEVLVPKGIGPTTKTTLTDLVPGTEYGVGISAVMNSKQSIPATMNARTELDSPRDLMVTASSETSISLIWTKASGPIDHYRITFTPSSGISSEVTVPRDRTSYTLTDLEPGAEYIISITAERGRQQSLESTVDAFTGFRPISHLHFSHVTSSSVNITWSDPSPPADRLILNYSPRDKEEDMLEVLLDATKRHAVLMGLQPATEYIVNLVAVHGTVTSEPIVGSITTGIDPPKNITISNVTKDSLTVSWSSPVAPFDYYRVSYRPTQVGRLDSSVVPNTVTEFAITRLYPATEYEISLNSVRGREESERICTLVHTAMDSPMDLIATNITPTEALLQWKAPMGEVENYVIVLTHFAIAGETILVDGVSEEFQLVDLLPSTHYTVTMYATSGPLMSGTIATNFSTLLDPPDNLTASEVTRQSALISWQPPRAAIENYVLTYKSTDGSRKELIVDAEDTWIRLEGLSENTDYTVLLQAAQEATRSSLTSTVFTTGGRVFSHPQDCAQHLMNGDTLSGVYTIFLNGELSHKLQVYCDMTTDGGGWIVFQRRQNGQTDFFRKWADYRVGFGNLEDEFWLGLDNIHRITAQGRYELRVDMRDGQEAVFAYYDKFAVEDSRSLYKIRIGSYNGTAGDSLSYHQGRPFSTEDRDNDVAVTNCAMSYKGAWWYKNCHRTNLNGKYGESRHSQGINWYHWKGHEFSIPFVEMKMRPYIHRLTAGRKRRALKF
With B2, the binding result in test [4] was “binds”.

B3: ADAM11 ectodomain (Fc and AP fusions) (domain or fragment, UniProt Q9R1V4 230-738)
chain: QVRRGHPTVHSETKYVELIVINDHQLFEQMRQSVVLTSNFAKSVVNLADVIYKEQLNTRIVLVAMETWADGDKIQVQDDLLETLARLMVYRREGLPEPSDATHLFSGRTFQSTSSGAAYVGGICSLSRGGGVNEYGNMGAMAVTLAQTLGQNLGMMWNKHRSSAGDCKCPDIWLGCIMEDTGFYLPRKFSRCSIDEYNQFLQEGGGSCLFNKPLKLLDPPECGNGFVEAGEECDCGSVQECSRAGGNCCKKCTLTHDAMCSDGLCCRRCKYEPRGVSCREAVNECDIAETCTGDSSQCPPNLHKLDGYYCDHEQGRCYGGRCKTRDRQCQALWGHAAADRFCYEKLNVEGTERGNCGRKGSGWVQCSKQDVLCGFLLCVNISGAPRLGDLGGDISSVTFYHQGKELDCRGGHVQLADGSDLSYVEDGTACGPNMLCLDHRCLPASAFNFSTCPGSGERRICSHHGVCSNEGKCICQPDWTGKDCSIHNPLPTSPPTGETERYKGPSGTN
Consider B3, for which, in test [5], the binding result is given as “binds”.

B4: NCAM2 ectodomain (Fc and AP fusions) (domain or fragment, UniProt O35136 20-697)
chain: LLQVTISLSKVELSVGESKFFTCTAIGEPESIDWYNPQGEKIISTQRVMLQKEGVRSRLTIYNANIEDAGIYRCQATDAKGQTQEATVVLEIYQKLTFREVVSPQEFKQGEDAEVVCRVSSSPAPAVSWLYHNEEVTTIPDNRFAVLANNNLQILNINKSDEGIYRCEGRVEARGEIDFRDIIVIVNVPPAIMMPQKSFNATAERGEEMTLTCKASGSPDPTISWFRNGKLIEENEKYILKGSNTELTVRNIINKDGGSYVCKATNKAGEDQKQAFLQVFVQPHILQLKNETTSENGHVTLVCEAEGEPVPEITWKRAIDGVMFSEGDKSPDGRIEVKGQHGRSSLHIRDVKLSDSGRYDCEAASRIGGHQRSMHLDIEYAPKFVSNQTMYYSWEGNPINISCDVTANPPASIHWRREKLLLPAKNTTHLKTHSVGRKMILEIAPTSDNDFGRYNCTATNRIGTRFQEYILELADVPSSPHGVKIIELSQTTAKISFNKPESHGGVPIHHYQVDVKEVASETWKIVRSHGVQTMVVLSSLEPNTTYEIRVAAVNGKGQGDYSKIEIFQTLPVREPSPPSIHGQPSSGKSFKISITKQDDGGAPILEYIVKYRSKDKEDQWLEKKVQGNKDHIILEHLQWTMGYEVQITAANRLGYSEPTVYEFSMPPKPNIIKDTLFN
With B4, in test [6], the binding entry is recorded as “binds”.
